# Data: the supplement of paper PMC10032668
# Amino acid sequences for entries named in this document (tags omitted).
# RUVBL1, Q9Y265, UniProt Q9Y265, whole entry: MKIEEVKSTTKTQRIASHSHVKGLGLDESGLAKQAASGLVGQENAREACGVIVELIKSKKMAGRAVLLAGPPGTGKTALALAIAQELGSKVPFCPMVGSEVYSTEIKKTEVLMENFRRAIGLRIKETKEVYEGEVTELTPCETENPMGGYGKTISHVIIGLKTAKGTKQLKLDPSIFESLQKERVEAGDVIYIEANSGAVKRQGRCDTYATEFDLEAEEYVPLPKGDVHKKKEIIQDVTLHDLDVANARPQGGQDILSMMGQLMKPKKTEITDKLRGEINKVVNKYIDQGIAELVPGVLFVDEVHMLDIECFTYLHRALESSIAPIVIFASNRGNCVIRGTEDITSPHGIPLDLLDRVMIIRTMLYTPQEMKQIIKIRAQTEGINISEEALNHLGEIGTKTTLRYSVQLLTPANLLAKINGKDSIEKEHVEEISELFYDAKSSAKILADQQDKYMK
# NDUFA9, Q16795, UniProt Q16795, whole entry: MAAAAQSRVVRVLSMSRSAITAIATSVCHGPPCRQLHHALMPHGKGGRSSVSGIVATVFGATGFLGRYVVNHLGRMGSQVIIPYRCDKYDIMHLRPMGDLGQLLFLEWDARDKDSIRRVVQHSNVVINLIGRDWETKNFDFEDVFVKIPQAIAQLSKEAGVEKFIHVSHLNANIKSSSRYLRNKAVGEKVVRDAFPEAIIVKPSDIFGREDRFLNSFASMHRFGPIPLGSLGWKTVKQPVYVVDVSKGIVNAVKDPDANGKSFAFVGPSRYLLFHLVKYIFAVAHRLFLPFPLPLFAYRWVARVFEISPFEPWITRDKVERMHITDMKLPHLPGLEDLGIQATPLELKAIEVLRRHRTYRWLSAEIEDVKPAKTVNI
# DDB1, Q16531, UniProt Q16531, whole entry: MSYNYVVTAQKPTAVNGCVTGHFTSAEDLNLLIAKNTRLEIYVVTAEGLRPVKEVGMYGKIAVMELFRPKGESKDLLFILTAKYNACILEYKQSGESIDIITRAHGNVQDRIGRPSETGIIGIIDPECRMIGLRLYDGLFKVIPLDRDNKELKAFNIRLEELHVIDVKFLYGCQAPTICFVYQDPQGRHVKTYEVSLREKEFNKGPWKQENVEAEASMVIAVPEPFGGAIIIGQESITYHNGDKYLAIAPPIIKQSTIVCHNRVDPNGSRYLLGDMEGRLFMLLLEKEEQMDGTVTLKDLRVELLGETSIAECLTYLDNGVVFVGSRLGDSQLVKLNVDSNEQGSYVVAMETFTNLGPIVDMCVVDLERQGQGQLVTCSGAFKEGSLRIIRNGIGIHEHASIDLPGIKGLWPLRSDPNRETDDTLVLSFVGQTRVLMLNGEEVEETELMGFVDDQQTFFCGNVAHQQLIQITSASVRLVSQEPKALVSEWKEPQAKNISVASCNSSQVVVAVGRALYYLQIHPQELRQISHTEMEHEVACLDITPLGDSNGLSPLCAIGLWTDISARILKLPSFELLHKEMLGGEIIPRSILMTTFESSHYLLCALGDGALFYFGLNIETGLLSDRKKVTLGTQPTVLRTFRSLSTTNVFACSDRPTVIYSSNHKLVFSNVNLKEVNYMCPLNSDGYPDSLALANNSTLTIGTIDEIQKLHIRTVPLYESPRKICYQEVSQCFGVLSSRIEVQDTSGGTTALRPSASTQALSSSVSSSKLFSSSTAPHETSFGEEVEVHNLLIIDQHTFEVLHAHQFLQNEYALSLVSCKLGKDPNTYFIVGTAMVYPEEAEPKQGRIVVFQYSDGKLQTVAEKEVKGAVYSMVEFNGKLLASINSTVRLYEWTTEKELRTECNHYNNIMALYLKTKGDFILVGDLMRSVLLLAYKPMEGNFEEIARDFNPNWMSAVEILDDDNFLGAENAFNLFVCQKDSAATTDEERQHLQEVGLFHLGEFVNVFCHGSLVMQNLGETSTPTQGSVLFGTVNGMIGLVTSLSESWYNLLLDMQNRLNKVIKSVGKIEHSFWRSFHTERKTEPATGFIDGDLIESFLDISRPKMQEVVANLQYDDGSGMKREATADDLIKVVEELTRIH
# PLK1, P53350, UniProt P53350, whole entry: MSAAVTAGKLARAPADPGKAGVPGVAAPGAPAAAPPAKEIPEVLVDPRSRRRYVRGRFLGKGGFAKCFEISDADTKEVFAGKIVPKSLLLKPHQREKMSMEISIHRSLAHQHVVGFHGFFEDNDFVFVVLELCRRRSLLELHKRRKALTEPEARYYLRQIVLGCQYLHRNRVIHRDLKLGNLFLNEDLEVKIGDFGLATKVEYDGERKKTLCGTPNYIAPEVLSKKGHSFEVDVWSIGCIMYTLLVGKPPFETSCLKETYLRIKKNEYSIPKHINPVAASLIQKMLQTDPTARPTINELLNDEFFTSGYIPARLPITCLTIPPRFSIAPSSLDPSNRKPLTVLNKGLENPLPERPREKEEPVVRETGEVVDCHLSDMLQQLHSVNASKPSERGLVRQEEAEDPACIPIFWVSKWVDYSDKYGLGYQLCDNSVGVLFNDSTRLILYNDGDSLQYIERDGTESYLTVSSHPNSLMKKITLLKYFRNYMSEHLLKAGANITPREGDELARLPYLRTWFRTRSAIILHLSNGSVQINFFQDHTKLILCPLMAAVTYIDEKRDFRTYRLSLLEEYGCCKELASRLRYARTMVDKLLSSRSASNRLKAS
# SNRPA, P09012, UniProt P09012, whole entry: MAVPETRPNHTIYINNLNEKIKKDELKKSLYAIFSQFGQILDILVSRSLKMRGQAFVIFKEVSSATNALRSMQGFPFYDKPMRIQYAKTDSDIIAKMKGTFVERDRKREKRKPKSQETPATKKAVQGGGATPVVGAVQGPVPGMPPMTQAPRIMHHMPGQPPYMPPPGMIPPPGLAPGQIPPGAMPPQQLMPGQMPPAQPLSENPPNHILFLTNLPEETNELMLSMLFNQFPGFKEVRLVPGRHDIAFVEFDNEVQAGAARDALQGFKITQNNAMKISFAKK
# USP9X, Q93008, UniProt Q93008, whole entry: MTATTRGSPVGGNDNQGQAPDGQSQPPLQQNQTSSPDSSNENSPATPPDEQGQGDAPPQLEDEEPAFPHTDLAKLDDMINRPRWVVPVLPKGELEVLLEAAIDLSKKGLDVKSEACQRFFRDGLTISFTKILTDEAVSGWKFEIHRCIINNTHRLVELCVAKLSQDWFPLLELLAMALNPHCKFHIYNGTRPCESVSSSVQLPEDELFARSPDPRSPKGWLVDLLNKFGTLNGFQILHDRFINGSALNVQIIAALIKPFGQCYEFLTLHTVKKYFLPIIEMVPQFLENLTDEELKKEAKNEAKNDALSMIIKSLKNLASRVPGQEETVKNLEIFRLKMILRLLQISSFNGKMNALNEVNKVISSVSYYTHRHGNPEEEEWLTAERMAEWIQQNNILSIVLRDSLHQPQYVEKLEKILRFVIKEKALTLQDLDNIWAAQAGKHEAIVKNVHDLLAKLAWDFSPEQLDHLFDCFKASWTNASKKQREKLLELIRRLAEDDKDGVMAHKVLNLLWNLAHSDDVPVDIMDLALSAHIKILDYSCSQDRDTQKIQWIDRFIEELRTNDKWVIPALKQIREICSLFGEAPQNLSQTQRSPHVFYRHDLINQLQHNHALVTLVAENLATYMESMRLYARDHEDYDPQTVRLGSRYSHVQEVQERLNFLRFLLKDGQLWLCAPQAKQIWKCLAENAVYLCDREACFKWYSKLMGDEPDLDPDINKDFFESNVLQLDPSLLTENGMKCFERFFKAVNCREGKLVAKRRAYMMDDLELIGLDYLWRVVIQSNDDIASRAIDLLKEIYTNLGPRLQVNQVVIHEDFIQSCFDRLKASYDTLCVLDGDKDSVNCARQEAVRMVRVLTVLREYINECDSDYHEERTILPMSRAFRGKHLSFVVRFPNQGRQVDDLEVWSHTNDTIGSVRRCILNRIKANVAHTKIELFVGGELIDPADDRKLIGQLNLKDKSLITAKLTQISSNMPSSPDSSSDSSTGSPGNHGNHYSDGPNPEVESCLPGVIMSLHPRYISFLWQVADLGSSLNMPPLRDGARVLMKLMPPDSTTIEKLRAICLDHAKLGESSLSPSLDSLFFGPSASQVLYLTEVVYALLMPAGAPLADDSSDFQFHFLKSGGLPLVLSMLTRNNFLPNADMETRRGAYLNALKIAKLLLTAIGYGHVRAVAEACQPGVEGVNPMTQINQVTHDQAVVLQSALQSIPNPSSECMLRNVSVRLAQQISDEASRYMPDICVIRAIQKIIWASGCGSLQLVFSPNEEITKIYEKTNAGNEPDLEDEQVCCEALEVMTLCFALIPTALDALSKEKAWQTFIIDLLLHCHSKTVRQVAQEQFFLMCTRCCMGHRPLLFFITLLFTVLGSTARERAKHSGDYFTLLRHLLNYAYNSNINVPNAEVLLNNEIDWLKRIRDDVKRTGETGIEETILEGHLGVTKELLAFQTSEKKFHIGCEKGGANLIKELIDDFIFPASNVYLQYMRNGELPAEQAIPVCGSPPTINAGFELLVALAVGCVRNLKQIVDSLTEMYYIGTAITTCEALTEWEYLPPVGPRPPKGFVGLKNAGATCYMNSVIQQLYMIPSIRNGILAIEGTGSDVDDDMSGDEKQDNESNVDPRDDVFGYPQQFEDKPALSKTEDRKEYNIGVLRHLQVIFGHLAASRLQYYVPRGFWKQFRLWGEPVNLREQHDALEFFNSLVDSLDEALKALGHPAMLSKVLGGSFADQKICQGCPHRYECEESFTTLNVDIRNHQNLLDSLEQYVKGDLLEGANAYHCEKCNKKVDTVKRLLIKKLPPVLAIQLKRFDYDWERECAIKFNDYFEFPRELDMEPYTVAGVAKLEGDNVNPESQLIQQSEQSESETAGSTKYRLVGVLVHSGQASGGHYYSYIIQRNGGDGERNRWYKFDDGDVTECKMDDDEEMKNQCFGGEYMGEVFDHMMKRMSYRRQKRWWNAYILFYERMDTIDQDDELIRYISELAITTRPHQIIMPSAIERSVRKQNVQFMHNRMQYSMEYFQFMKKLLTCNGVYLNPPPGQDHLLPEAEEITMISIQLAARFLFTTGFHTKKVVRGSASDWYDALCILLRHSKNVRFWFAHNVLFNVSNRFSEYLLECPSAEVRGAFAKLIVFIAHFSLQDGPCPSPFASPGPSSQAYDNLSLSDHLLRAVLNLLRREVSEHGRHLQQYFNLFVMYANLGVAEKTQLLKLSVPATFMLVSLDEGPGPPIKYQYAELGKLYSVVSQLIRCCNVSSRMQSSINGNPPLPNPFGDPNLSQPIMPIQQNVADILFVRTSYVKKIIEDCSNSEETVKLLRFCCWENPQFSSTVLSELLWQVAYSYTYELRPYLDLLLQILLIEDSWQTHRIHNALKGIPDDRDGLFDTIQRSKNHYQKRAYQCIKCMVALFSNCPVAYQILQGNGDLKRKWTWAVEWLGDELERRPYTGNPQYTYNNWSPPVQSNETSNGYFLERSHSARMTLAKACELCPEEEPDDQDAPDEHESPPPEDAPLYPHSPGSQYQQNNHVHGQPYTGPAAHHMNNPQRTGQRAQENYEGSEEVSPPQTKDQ
# DDX10, Q13206, UniProt Q13206, whole entry: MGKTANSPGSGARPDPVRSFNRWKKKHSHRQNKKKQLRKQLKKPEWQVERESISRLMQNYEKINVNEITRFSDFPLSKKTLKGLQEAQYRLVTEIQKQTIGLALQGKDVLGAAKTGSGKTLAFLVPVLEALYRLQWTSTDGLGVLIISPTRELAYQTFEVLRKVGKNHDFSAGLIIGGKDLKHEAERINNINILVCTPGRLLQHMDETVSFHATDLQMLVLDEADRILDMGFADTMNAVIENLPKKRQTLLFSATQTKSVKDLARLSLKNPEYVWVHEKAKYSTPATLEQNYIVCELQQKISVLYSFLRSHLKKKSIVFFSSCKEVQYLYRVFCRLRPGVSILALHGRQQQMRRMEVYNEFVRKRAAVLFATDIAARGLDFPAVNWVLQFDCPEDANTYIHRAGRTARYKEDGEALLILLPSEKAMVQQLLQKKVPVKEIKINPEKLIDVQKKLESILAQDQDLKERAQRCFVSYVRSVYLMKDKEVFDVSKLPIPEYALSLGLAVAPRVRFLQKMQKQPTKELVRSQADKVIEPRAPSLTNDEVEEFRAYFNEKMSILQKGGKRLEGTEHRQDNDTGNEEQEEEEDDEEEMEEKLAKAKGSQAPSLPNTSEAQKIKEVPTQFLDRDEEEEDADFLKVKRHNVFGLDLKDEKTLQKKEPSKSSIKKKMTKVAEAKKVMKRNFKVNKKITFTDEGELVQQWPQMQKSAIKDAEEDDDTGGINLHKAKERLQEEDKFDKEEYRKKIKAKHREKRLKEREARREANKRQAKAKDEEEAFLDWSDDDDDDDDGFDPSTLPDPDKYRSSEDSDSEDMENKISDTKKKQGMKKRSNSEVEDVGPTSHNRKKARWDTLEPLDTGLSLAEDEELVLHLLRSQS
# The other results are listed elsewhere or left out. The list holds hits alone, and they repeat only in part.
# Key:
# Assay in all cases: PRISMA enrichment of interactor (LFQ) in peptide spot vs all other peptide spots (log2 fold change); higher = stronger / more specific binding of the interactor to the peptide
# DCUN1D5, Q9BTE7 = biological target: DCUN1D5, Q9BTE7
# Experimental: (§1)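 PRISMA: 15-aa overlapping tiles (offset 8 aa) of 60 microproteins, plus SOS1/GLUT1 control peptides, were spot-synthesized on cellulose membranes in triplicate. Membranes were incubated with benzonase-treated HEK293T lysate, and bound proteins were identified by LC-MS/MS with LFQ. Enrichment is the log2 fold change of each protein in one spot versus all other spots. Only interactors passing the significance cutoff are listed.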
# GALK1, P51570 = biological target: GALK1, P51570
# Experimental: as §1
# MRPL18, Q9H0U6 = biological target: MRPL18, Q9H0U6
# Experimental: as §1
# PKP2, Q99959 = biological target: PKP2, Q99959
# Experimental: as §1
# PTCD3, Q96EY7 = biological target: PTCD3, Q96EY7
# Experimental: as §1
# RUVBL1, Q9Y265 = biological target: RUVBL1, Q9Y265
# Experimental: as §1
# HDGF, P51858 = biological target: HDGF, P51858
# Experimental: as §1
# HSPBP1, Q9NZL4 = biological target: HSPBP1, Q9NZL4
# Experimental: as §1
# NDUFA9, Q16795 = biological target: NDUFA9, Q16795
# Experimental: as §1
# RRP15, Q9Y3B9 = biological target: RRP15, Q9Y3B9
# Experimental: as §1
# SERPINA1, P01009 = biological target: SERPINA1, P01009
# Experimental: as §1
# STIP1, P31948 = biological target: STIP1, P31948
# Experimental: as §1
# DDB1, Q16531 = biological target: DDB1, Q16531
# Experimental: as §1
# EEF1B2, P24534 = biological target: EEF1B2, P24534
# Experimental: as §1
# GPAT4, Q86UL3 = biological target: GPAT4, Q86UL3
# Experimental: as §1
# PLK1, P53350 = biological target: PLK1, P53350
# Experimental: as §1
# PYGL, P06737 = biological target: PYGL, P06737
# Experimental: as §1
# RAVER1, Q8IY67 = biological target: RAVER1, Q8IY67
# Experimental: as §1
# RBM12B, Q8IXT5 = biological target: RBM12B, Q8IXT5
# Experimental: as §1
# SMNDC1, O75940 = biological target: SMNDC1, O75940
# Experimental: as §1
# SNRPA, P09012 = biological target: SNRPA, P09012
# Experimental: as §1
# SSR1, P43307 = biological target: SSR1, P43307
# Experimental: as §1
# TOP2B, Q02880 = biological target: TOP2B, Q02880
# Experimental: as §1
# UBE2N, P61088 = biological target: UBE2N, P61088
# Experimental: as §1
# USP9X, Q93008 = biological target: USP9X, Q93008
# Experimental: as §1
# ZNF483, Q8TF39 = biological target: ZNF483, Q8TF39
# Experimental: as §1
# DDX10, Q13206 = biological target: DDX10, Q13206
# Experimental: as §1
# DNAJB1, P25685 = biological target: DNAJB1, P25685
# Experimental: as §1
# ESYT2, A0FGR8 = biological target: ESYT2, A0FGR8
# Experimental: as §1
# NAA15, Q9BXJ9 = biological target: NAA15, Q9BXJ9
# Experimental: as §1
# PAK1IP1, Q9NWT1 = biological target: PAK1IP1, Q9NWT1
# Experimental: as §1
# PDCD6IP, Q8WUM4 = biological target: PDCD6IP, Q8WUM4
# Experimental: as §1
# RAB6A, P20340 = biological target: RAB6A, P20340
# Experimental: as §1
# RBM8A, Q9Y5S9 = biological target: RBM8A, Q9Y5S9
# Experimental: as §1
# SLC25A22, Q9H936 = biological target: SLC25A22, Q9H936
# Experimental: as §1
# YWHAZ, P63104 = biological target: YWHAZ, P63104
# Experimental: as §1
# ZNF768, Q9H5H4 = biological target: ZNF768, Q9H5H4
# Experimental: as §1
binder,measurement,setting,value
DWRKRRLQDKLAATQ [MTLN],PRISMA enrichment of interactor (log2),"DCUN1D5, Q9BTE7",6.11
same,PRISMA enrichment of interactor (log2),"GALK1, P51570",4.63
same,PRISMA enrichment of interactor (log2),"MRPL18, Q9H0U6",5.45
same,PRISMA enrichment of interactor (log2),"PKP2, Q99959",5.89
same,PRISMA enrichment of interactor (log2),"PTCD3, Q96EY7",5.95
same,PRISMA enrichment of interactor (log2),"RUVBL1, Q9Y265",6.1
MSLRNLWRDYKVLVV [MKKS],PRISMA enrichment of interactor (log2),"DCUN1D5, Q9BTE7",6.28
same,PRISMA enrichment of interactor (log2),"HDGF, P51858",4.37
same,PRISMA enrichment of interactor (log2),"HSPBP1, Q9NZL4",4.77
same,PRISMA enrichment of interactor (log2),"NDUFA9, Q16795",4.32
same,PRISMA enrichment of interactor (log2),"RRP15, Q9Y3B9",5.79
same,PRISMA enrichment of interactor (log2),"SERPINA1, P01009",4.99
same,PRISMA enrichment of interactor (log2),"STIP1, P31948",9.07
NLEMGLVERGIEKSR [JHDM1D-AS1],PRISMA enrichment of interactor (log2),"DDB1, Q16531",5.67
same,PRISMA enrichment of interactor (log2),"EEF1B2, P24534",5.15
same,PRISMA enrichment of interactor (log2),"GPAT4, Q86UL3",5.76
same,PRISMA enrichment of interactor (log2),"PLK1, P53350",6.12
same,PRISMA enrichment of interactor (log2),"PYGL, P06737",4.68
same,PRISMA enrichment of interactor (log2),"RAVER1, Q8IY67",5.51
same,PRISMA enrichment of interactor (log2),"RBM12B, Q8IXT5",4.24
same,PRISMA enrichment of interactor (log2),"SMNDC1, O75940",5.09
same,PRISMA enrichment of interactor (log2),"SNRPA, P09012",6.19
same,PRISMA enrichment of interactor (log2),"SSR1, P43307",4.05
same,PRISMA enrichment of interactor (log2),"TOP2B, Q02880",6
same,PRISMA enrichment of interactor (log2),"UBE2N, P61088",7.09
same,PRISMA enrichment of interactor (log2),"USP9X, Q93008",7.36
same,PRISMA enrichment of interactor (log2),"ZNF483, Q8TF39",4.59
CRSSLSAPAAWARPA [RAB12],PRISMA enrichment of interactor (log2),"DDX10, Q13206",4.47
same,PRISMA enrichment of interactor (log2),"DNAJB1, P25685",5.82
same,PRISMA enrichment of interactor (log2),"ESYT2, A0FGR8",7.92
same,PRISMA enrichment of interactor (log2),"NAA15, Q9BXJ9",4.51
same,PRISMA enrichment of interactor (log2),"PAK1IP1, Q9NWT1",5.55
same,PRISMA enrichment of interactor (log2),"PDCD6IP, Q8WUM4",6.73
same,PRISMA enrichment of interactor (log2),"RAB6A, P20340",4.38
same,PRISMA enrichment of interactor (log2),"RBM8A, Q9Y5S9",4.39
same,PRISMA enrichment of interactor (log2),"SLC25A22, Q9H936",4.48
same,PRISMA enrichment of interactor (log2),"YWHAZ, P63104",4.97
same,PRISMA enrichment of interactor (log2),"ZNF768, Q9H5H4",4.86

# Quoted from above for reference:
binder,measurement,setting,value
MSLRNLWRDYKVLVV [MKKS],PRISMA enrichment of interactor (log2),"HDGF, P51858",4.37
same,PRISMA enrichment of interactor (log2),"HSPBP1, Q9NZL4",4.77
same,PRISMA enrichment of interactor (log2),"NDUFA9, Q16795",4.32
same,PRISMA enrichment of interactor (log2),"RRP15, Q9Y3B9",5.79
same,PRISMA enrichment of interactor (log2),"SERPINA1, P01009",4.99
same,PRISMA enrichment of interactor (log2),"STIP1, P31948",9.07
NLEMGLVERGIEKSR [JHDM1D-AS1],PRISMA enrichment of interactor (log2),"DDB1, Q16531",5.67
same,PRISMA enrichment of interactor (log2),"EEF1B2, P24534",5.15
same,PRISMA enrichment of interactor (log2),"GPAT4, Q86UL3",5.76
